According to PubChem BioAssay AID438 (Columbia University Molecular Screening Center, 2006):
Some of the results follow.

experiment: inhibitors of TNFa-induced NFkB p65 translocation, primary screen, imaging, HUVEC, MLSMR starter and 10KST1 sets (AID 438); details: HUVEC TNFa-induced p65 nuclear translocation, measured here: nuclei count (cytotoxicity indicator), at 2.08 µM;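 further: compound added about 3h40 before a 20 min TNFalpha stimulation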

Row | Compound | cell count
1 | Fc1ccccc1NC1CCN(Cc2ccccc2)CC1 | 286
